PubChem BioAssay AID1259308 | NCATS, 2017

Aim: 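Knock-downs that increase output of a recombinant reporter protein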 (primary screen)
Cell system: human HEK293 embryonic kidney cells stably expressing firefly luciferase (HEK-CMV-Luc2-Hygro)
Knock-down reagent: single siRNA against human genes, 0.8 pmol siRNA per well
Duration: 72 h
Read-out: 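Reporter luminescence and viable-cell signal on separate replicate plates, given as percent of non-targeting control and median/MAD z-scores, plus per-cell luciferase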
Reading the numbers: total luciferase, z-score and total luciferase, % of control: higher = more reporter protein produced
Hit rule: 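An siRNA counts as active if its total luciferase robust z-score exceeds 3; genes with two or more such siRNAs out of three were retested with fresh siRNAs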
Meaning of the calls: active = raised luciferase; inactive = no rise
This is one part, drawn at random, of about 59,000 reagents tested. About 1,510 of all reagents (2.6%) count as active. 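Calls use total luciferase alone and ignore viability, so some active siRNAs may act by altering cell number.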 The numbers tell different reagents against one gene apart. Not all columns of the deposit are shown.

Depletion of CLINT1 #1 resulted in: total luciferase, z-score 2.62; total luciferase, % of control 134; inactive. Against CLINT1 #2, the values are total luciferase, z-score 0.141; total luciferase, % of control 84.7; inactive. Against CLINT1 #3 the deposit lists total luciferase, z-score 0.0838; total luciferase, % of control 83.6; inactive. After knock-down of RBMS3 #1, the record shows total luciferase, z-score 0.393; total luciferase, % of control 89.7; inactive. RBMS3 #2 scored total luciferase, z-score -0.393; total luciferase, % of control 74.1; inactive. Silencing of RBMS3 #3 came out at: total luciferase, z-score -0.66; total luciferase, % of control 68.8; inactive.

For SHC1 #1 the deposit lists total luciferase, z-score -1.27; total luciferase, % of control 56.7; inactive. After knock-down of SHC1 #2, the screen gave total luciferase, z-score -0.339; total luciferase, % of control 75.1; inactive. With knock-down of SHC1 #3 the results were total luciferase, z-score 0.733; total luciferase, % of control 96.5; inactive. Against TARBP1 #1, the values are total luciferase, z-score 0.186; total luciferase, % of control 85.6; inactive. With knock-down of TARBP1 #2 the results were total luciferase, z-score -0.738; total luciferase, % of control 67.2; inactive. TARBP1 #3 scored total luciferase, z-score -1.04; total luciferase, % of control 61.2; inactive.

Limited to “total luciferase, z-score”, for 3 of the entries above:
RBMS3 #3: -0.66
SHC1 #1: -1.27
SHC1 #2: -0.339

The listing continues.
After knock-down of GPR20 #1 the results were total luciferase, z-score 1.3; total luciferase, % of control 108; inactive. After knock-down of GPR20 #2, the screen gave total luciferase, z-score 0.0572; total luciferase, % of control 83; inactive. For GPR20 #3, the entry reads total luciferase, z-score -0.07; total luciferase, % of control 80.5; inactive. With knock-down of RNASE6 #1 the results were total luciferase, z-score 1.53; total luciferase, % of control 112; inactive. With knock-down of RNASE6 #2, the record shows total luciferase, z-score -1.68; total luciferase, % of control 48.5; inactive. RNASE6 #3 scored total luciferase, z-score -1.32; total luciferase, % of control 55.7; inactive.

NUP37 #1 showed total luciferase, z-score -0.265; total luciferase, % of control 76.6; inactive. With knock-down of NUP37 #2, the record shows total luciferase, z-score -0.522; total luciferase, % of control 71.5; inactive. Depletion of NUP37 #3 gave: total luciferase, z-score -0.355; total luciferase, % of control 74.8; inactive.
